The supplement of paper PMC7666118
This is one part of the list.

Sequences of proteins named here, by UniProt entry; tags and fusion partners are left off. A change or cut given only in a name is not applied to a line headed by its entry.
UniProt Q9NR30: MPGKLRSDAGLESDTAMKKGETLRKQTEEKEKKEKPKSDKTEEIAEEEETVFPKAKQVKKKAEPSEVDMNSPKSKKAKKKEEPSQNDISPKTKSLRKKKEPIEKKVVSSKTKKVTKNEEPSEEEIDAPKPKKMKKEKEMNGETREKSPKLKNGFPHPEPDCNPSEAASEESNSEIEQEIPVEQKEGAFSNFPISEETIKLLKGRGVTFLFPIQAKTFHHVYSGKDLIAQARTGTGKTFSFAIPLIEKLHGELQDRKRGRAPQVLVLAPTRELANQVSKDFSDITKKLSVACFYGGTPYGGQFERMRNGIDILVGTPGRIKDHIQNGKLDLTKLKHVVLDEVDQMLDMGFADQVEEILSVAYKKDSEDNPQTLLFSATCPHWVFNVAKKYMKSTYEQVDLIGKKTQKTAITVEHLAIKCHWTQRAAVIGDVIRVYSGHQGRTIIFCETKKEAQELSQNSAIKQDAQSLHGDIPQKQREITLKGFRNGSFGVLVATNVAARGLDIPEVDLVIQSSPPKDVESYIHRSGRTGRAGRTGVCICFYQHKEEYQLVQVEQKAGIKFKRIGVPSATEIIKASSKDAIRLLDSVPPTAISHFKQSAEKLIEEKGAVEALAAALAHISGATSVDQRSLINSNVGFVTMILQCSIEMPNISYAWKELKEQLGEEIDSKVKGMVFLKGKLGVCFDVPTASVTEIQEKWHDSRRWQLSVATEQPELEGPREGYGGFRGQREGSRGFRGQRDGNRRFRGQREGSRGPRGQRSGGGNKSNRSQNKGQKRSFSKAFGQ
UniProt P32929, whole entry: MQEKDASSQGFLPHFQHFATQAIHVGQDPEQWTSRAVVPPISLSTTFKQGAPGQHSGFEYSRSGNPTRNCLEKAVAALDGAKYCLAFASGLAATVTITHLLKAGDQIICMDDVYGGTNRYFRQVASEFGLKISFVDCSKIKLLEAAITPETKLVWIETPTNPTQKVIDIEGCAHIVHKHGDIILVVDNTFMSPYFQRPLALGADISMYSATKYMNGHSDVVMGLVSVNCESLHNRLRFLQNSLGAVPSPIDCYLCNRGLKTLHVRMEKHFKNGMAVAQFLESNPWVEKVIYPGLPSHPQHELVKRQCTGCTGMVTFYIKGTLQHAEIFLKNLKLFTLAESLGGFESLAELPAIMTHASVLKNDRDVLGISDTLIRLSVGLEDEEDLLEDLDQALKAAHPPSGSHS
UniProt O75140: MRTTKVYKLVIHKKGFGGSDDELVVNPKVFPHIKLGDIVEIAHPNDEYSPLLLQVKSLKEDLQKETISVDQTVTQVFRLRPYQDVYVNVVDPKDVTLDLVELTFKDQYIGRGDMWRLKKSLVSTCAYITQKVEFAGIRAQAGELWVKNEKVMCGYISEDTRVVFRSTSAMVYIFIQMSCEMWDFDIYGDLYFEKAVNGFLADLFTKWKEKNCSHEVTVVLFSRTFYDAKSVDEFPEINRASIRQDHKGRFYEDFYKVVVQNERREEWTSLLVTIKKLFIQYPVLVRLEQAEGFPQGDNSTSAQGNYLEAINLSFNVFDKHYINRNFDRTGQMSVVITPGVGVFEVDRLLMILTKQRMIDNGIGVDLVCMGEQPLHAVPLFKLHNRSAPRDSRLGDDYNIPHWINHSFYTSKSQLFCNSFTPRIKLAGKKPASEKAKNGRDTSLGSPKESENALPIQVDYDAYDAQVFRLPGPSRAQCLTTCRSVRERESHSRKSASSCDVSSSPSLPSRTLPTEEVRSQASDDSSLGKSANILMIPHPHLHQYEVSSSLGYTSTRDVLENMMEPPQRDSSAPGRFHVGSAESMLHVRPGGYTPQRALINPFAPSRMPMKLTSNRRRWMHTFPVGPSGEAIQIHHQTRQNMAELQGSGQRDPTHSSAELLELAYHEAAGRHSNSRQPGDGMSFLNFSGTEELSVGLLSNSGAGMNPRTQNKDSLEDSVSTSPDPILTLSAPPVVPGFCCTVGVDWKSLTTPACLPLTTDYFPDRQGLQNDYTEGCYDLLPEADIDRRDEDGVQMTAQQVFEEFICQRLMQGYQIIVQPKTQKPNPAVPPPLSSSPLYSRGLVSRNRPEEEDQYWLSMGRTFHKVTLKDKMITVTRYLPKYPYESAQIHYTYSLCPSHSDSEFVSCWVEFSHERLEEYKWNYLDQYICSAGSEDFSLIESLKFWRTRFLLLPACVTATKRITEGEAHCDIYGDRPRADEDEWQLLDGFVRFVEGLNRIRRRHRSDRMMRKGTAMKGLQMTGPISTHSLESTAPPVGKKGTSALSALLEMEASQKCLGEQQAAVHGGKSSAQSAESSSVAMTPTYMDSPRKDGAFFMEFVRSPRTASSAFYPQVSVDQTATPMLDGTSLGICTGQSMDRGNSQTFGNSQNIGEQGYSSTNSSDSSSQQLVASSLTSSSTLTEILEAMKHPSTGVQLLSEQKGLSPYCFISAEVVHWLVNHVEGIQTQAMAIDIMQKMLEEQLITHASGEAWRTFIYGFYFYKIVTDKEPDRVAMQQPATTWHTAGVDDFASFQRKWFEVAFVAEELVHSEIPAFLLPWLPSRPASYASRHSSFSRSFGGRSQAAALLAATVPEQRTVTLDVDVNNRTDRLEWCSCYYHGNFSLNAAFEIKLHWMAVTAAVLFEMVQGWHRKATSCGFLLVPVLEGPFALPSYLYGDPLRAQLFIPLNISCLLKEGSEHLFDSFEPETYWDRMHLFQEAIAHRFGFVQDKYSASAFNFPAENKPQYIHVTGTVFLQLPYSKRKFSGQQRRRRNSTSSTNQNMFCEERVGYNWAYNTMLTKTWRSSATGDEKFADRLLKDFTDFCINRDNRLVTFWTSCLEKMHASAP
UniProt P61923: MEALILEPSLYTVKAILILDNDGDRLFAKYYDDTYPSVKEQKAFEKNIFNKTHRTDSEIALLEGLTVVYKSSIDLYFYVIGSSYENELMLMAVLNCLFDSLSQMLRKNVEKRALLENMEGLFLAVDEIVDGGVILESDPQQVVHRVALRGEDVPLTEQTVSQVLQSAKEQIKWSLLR
UniProt Q9NUI1: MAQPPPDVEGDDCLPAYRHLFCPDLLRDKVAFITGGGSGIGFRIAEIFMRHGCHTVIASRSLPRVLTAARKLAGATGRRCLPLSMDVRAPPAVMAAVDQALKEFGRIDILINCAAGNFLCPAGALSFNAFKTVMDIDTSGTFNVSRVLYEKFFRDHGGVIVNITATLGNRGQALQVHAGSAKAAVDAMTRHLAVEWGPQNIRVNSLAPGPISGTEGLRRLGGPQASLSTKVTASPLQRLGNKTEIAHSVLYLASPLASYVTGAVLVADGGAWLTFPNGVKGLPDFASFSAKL
UniProt P46109: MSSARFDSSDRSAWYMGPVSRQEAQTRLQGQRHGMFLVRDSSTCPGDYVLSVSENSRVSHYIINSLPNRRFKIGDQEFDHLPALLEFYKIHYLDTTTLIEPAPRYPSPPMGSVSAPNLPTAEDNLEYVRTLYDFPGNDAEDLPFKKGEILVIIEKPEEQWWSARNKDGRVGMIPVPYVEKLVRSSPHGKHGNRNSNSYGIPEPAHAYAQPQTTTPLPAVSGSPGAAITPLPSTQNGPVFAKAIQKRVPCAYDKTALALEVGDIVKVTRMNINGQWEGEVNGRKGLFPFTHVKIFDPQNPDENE
UniProt Q7Z4G1, whole entry: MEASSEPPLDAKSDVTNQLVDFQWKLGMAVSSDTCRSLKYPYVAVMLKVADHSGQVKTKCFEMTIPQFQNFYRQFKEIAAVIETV
UniProt P16989, whole entry: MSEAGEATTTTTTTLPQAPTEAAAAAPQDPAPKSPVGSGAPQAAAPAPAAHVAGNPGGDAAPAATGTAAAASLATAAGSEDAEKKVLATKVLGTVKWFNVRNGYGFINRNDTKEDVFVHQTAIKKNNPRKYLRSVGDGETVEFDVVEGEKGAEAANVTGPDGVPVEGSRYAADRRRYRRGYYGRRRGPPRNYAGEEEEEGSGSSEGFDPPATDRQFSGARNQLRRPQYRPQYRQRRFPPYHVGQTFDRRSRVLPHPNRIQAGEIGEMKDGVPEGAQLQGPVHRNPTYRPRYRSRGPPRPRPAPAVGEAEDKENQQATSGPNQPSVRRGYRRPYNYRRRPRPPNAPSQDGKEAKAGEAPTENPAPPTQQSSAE
UniProt P53618: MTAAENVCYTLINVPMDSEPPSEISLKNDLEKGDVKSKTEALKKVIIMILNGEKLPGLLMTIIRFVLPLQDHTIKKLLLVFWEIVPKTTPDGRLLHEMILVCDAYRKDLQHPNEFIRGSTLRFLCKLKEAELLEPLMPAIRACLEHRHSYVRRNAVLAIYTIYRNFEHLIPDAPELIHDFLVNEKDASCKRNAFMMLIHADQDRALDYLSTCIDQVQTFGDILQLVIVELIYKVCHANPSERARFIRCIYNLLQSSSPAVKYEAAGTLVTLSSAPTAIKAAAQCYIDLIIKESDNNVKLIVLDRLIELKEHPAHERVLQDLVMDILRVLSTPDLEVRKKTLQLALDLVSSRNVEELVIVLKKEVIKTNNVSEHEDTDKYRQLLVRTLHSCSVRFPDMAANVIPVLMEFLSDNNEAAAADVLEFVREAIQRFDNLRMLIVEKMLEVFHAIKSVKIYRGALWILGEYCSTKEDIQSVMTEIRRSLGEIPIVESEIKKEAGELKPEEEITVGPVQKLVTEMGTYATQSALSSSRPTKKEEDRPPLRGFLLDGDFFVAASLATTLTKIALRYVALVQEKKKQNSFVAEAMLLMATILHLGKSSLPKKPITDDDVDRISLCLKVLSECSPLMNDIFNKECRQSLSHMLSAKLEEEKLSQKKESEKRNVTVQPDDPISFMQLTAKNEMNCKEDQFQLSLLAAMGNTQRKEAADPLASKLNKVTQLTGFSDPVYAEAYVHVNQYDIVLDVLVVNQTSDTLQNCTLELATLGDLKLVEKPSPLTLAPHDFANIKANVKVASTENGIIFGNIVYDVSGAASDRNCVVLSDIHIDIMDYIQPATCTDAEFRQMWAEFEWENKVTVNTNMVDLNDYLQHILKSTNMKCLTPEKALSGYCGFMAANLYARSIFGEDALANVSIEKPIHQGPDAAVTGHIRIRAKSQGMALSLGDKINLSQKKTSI
UniProt O14548: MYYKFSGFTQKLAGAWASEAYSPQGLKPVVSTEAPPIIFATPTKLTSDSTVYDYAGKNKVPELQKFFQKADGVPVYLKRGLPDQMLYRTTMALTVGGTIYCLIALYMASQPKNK
UniProt Q92905, whole entry, looked up: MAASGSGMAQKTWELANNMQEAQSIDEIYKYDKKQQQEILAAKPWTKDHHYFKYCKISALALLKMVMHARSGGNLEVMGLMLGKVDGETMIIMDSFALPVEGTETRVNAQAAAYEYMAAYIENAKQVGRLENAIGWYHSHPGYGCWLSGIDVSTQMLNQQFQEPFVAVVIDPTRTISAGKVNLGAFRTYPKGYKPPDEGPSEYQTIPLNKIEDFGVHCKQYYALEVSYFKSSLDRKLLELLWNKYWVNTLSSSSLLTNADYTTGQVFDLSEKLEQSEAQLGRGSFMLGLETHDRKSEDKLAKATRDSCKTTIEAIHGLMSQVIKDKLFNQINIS
UniProt P09669, whole entry: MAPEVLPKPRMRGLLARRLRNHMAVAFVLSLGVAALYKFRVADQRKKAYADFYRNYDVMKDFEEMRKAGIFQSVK
UniProt Q9UBR2: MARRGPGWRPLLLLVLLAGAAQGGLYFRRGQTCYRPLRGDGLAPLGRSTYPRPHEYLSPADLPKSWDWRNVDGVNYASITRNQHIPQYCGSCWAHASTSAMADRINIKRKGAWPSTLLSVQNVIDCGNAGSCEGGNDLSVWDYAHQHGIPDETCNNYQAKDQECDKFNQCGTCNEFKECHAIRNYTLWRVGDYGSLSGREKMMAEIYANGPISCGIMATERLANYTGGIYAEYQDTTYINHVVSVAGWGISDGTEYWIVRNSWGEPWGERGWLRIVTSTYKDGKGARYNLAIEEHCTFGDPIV
UniProt Q9H8E8: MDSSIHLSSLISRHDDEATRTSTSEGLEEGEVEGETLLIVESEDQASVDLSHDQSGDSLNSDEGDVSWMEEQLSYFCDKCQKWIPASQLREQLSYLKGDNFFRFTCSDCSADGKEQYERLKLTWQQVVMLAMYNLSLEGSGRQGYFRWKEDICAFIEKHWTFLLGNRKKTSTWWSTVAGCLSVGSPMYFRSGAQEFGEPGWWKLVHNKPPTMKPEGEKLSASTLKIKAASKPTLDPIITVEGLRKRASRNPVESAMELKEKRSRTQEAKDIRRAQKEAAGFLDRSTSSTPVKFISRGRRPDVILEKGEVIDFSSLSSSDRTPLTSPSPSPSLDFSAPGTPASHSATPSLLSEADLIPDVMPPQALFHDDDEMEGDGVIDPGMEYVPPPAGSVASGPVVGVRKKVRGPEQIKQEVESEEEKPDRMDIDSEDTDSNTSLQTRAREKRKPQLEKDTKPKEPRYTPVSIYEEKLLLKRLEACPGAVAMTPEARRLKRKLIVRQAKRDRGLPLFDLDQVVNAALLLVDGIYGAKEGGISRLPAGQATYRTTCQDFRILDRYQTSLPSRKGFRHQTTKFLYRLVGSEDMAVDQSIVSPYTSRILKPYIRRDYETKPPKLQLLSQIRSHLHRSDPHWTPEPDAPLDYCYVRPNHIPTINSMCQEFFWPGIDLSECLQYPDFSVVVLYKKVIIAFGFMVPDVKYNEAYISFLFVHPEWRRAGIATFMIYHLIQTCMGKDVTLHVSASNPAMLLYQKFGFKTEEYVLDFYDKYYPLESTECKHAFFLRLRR

What follows are targets tested with COc1ccc(Cn2ccc3ccc(C(=O)NO)cc32)cc1 (assay: dose-dependent thermal stabilisation call (2D-TPP, DLPTP, 10% FDR) (binary (1 = stabilised)); higher = stabilised by the compound). Settings: system: HL-60 intact cells; concentration range 0.04-10 µM.
In the case of DDX21 (UniProt Q9NR30), the “dose-dependent thermal stabilisation call” value is reported as inactive: 0. With DDB2 (UniProt Q92466) the “dose-dependent thermal stabilisation call” value was inactive: 0. In the case of CPSF1 (UniProt Q10570), the “dose-dependent thermal stabilisation call” value is reported as inactive: 0. For CTH (UniProt P32929), the “dose-dependent thermal stabilisation call” value was inactive: 0. In the case of DEPDC5 (UniProt O75140), the “dose-dependent thermal stabilisation call” value is reported as inactive: 0. With DAK (UniProt Q3LXA3) the “dose-dependent thermal stabilisation call” value was inactive: 0. For COPZ1 (UniProt P61923), the “dose-dependent thermal stabilisation call” value was inactive: 0. With DECR2 (UniProt Q9NUI1) the “dose-dependent thermal stabilisation call” value was inactive: 0. With CPT1A (UniProt P50416) the “dose-dependent thermal stabilisation call” value was inactive: 0. For CRKL (UniProt P46109), the “dose-dependent thermal stabilisation call” value was inactive: 0. In the case of COMMD6 (UniProt Q7Z4G1), the “dose-dependent thermal stabilisation call” value is reported as inactive: 0. With DDX56 (UniProt Q9NY93) the “dose-dependent thermal stabilisation call” value was inactive: 0. DDX54 (UniProt Q8TDD1) was tested, and the “dose-dependent thermal stabilisation call” value was inactive: 0. With CYC1 (UniProt P08574) the “dose-dependent thermal stabilisation call” value was inactive: 0. In the case of CSDA (UniProt P16989), the “dose-dependent thermal stabilisation call” value is reported as inactive: 0. With DHRS4 (UniProt Q9BTZ2) the “dose-dependent thermal stabilisation call” value was inactive: 0. In the case of CRK (UniProt P46108), the “dose-dependent thermal stabilisation call” value is reported as inactive: 0. With DAAM1 (UniProt Q9Y4D1) the “dose-dependent thermal stabilisation call” value was inactive: 0. CSNK1G2 (UniProt P78368) was tested, and the “dose-dependent thermal stabilisation call” value was inactive: 0. In the case of COPB1 (UniProt P53618), the “dose-dependent thermal stabilisation call” value is reported as inactive: 0. DCTN1 (UniProt Q14203) was tested, and the “dose-dependent thermal stabilisation call” value was inactive: 0. For COX7A2L (UniProt O14548), the “dose-dependent thermal stabilisation call” value was inactive: 0. COX5A (UniProt P20674) was tested, and the “dose-dependent thermal stabilisation call” value was inactive: 0. With COPS5 (UniProt Q92905) the “dose-dependent thermal stabilisation call” value was inactive: 0. In the case of CPT2 (UniProt P23786), the “dose-dependent thermal stabilisation call” value is reported as inactive: 0. With CTSW (UniProt P56202) the “dose-dependent thermal stabilisation call” value was inactive: 0. DDRGK1 (UniProt Q96HY6) was tested, and the “dose-dependent thermal stabilisation call” value was inactive: 0. For DDX1 (UniProt Q92499), the “dose-dependent thermal stabilisation call” value was inactive: 0. In the case of COPS3 (UniProt Q9UNS2), the “dose-dependent thermal stabilisation call” value is reported as inactive: 0. COX6C (UniProt P09669) was tested, and the “dose-dependent thermal stabilisation call” value was inactive: 0. With CTBS (UniProt Q01459) the “dose-dependent thermal stabilisation call” value was inactive: 0. With CWF19L1 (UniProt Q69YN2) the “dose-dependent thermal stabilisation call” value was inactive: 0. For CTSZ (UniProt Q9UBR2), the “dose-dependent thermal stabilisation call” value was inactive: 0. In the case of DDX27 (UniProt Q96GQ7), the “dose-dependent thermal stabilisation call” value is reported as inactive: 0. In the case of CYTSA (UniProt Q69YQ0), the “dose-dependent thermal stabilisation call” value is reported as inactive: 0. With CSRP2BP (UniProt Q9H8E8) the “dose-dependent thermal stabilisation call” value was inactive: 0. In the case of CPSF3 (UniProt Q9UKF6), the “dose-dependent thermal stabilisation call” value is reported as inactive: 0. For CSTB (UniProt P04080), the “dose-dependent thermal stabilisation call” value was inactive: 0.
